Primary screen of a compound library

Sequences of proteins named here, by UniProt entry; tags and fusion partners are left off.
UniProt E9BF75, entry or part of it: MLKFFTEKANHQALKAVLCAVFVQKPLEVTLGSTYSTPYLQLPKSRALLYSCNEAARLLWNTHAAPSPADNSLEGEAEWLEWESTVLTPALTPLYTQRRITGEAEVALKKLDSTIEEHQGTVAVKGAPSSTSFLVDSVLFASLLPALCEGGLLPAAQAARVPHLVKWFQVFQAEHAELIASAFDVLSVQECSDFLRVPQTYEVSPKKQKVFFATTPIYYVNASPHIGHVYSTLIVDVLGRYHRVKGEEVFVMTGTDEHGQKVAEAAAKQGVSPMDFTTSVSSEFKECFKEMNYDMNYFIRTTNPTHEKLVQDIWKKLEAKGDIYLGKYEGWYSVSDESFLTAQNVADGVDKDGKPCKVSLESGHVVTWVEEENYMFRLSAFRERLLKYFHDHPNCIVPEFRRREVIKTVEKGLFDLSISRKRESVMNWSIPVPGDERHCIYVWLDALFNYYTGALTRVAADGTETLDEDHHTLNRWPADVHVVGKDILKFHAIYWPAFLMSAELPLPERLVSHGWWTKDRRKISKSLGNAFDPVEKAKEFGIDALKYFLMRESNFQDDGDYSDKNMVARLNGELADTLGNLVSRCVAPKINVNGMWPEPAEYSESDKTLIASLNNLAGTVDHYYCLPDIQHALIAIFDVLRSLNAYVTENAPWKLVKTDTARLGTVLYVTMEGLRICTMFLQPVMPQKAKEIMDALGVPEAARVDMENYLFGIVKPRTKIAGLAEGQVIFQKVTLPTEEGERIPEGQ

All values are in %. How 0% and 100% were set is not recorded. Most values in the screen are low, and negative values occur. This is an unselected part of the compounds tested. A dash means the value is not listed here; it may have been measured.

Mtb heat-shock: 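Assay on Mycobacterium tuberculosis, filed only as a heat shock assay from Cornell; the read-out is not stated. The concentration is filed as 10 mM, unlikely as a test dose, so the dose is not known. Direction is inferred from retests: higher values go with stronger inhibition. Of about 69,000 compounds tested this way, about 930 (1.4%) reached 50% or more in at least one test.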
LdMetRS: 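Methionyl-tRNA synthetase (putative), Leishmania donovani (UniProt E9BF75). Primary screen of methionyl-tRNA synthetase; the read-out is not stated. The test concentration is not given. The values are filed as inhibition. About 68,000 compounds were tested under these conditions; 0.035% (about 24) showed 50% or more at least once.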
Mtb growth Cornell: 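Whole-cell assay for inhibitors of Mycobacterium tuberculosis growth, labelled Cornell in the record; the read-out is not stated. The concentration is filed as 10 mM, unlikely as a test dose, so the dose is not known. Higher means stronger inhibition (inferred from two other growth screens of the library). Size under these conditions: about 53,000 compounds, about 900 of them at 50% or above in at least one test.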

SMILES,Mtb heat-shock,LdMetRS,Mtb growth Cornell
Cc1nc(CN2CC3(CCN(c4cnccn4)C3)CC2=O)cs1.O=C(O)C(F)(F)F (stereo not given),-18.04,-,6.202
O=C(CNc1ccc(F)cc1OCC(F)(F)F)NCc1ccco1,-12.26,15.72,6.734
Cc1ccc(C(=O)N2CCCCC2c2[nH]ncc2S(C)(=O)=O)s1 (stereo not given),-29.59,-2.118,-
O=C(Cn1cnc2cc3c(cc21)OCCCO3)NCCc1ccccc1,-1.538,9.841,7.115
CC(C)Cc1nc(CN2CCOC(Cn3cccn3)C2)no1 (stereo not given),-15.35,8.434,-
CN(C)S(=O)(=O)c1ccc(CN2CCCC2CO)o1 (stereo not given),-18.09,13.39,17.07
[H][C@@]12CN(Cc3cccnc3)C(=O)N1CCN(C1CCOCC1)C2,-29.2,-,-42.07
COCC1CN(Cc2ccc(OC)cc2)Cc2nn(C)cc21 (stereo not given),-,4.721,-
COCc1cc(N2CCN(c3ccc(Cl)cn3)CC2)n2nccc2n1,-11.42,8.397,28.85
Cc1cnc(CN2CCCC2c2noc(C3CC3)n2)cn1 (stereo not given),-3.748,6.627,-
CCn1ccnc1CNCC1CCCN1c1cccnn1 (stereo not given),2.735,18.18,-
NC(=O)CN1CCC(NC(=O)c2ccn(-c3cccc(F)c3)n2)CC1,14.87,13.27,5.783
[H][C@@]12CCN(Cc3ccccn3)[C@@]1([H])CCN2C(=O)c1cnoc1C,-44.72,-,-22.73
CCn1cnnc1CNC(=O)N1CCN(Cc2ccco2)CC1,3.317,20.44,-
COCCN1CCC2(CCN(Cc3cccs3)CC2)C1=O.O=C(O)C(F)(F)F,-12.31,-,-6.658
CCN(CC)Cc1cnc2n1CCN(Cc1c(C)noc1C)CC2.O=C(O)C(F)(F)F.O=C(O)C(F)(F)F,-33.8,-,-16.37
CSCC(C)(O)CNC(=O)c1ccc(Br)cc1F (stereo not given),3.445,13.01,24.32
CC(C)CNC(=O)CNC(=O)c1nc(Cc2c(Cl)cccc2Cl)no1,-11.27,20.38,50.66
COc1ccc(CNCCn2c(C)nc3ccccc32)cc1O,14.57,13.24,-17.9
CCOc1ncnc2c1CCN(Cc1csc(C)n1)CC2,-,4.127,-
O=C1C(NS(=O)(=O)c2cccc(F)c2)CCN1Cc1ccccc1 (stereo not given),-13.98,16.62,-
CC(C)c1nc(C2CCCN(c3nccc(C(F)(F)F)n3)C2)no1 (stereo not given),0.9675,15.93,-
CC(C)n1cnnc1Cn1ccc2ncccc2c1=O,-17.61,4.482,-16.96
CC(C)OCCSc1nnnn1C1CCOCC1,6.543,17.01,3.477
CCN(CC(=O)NC)C(=O)c1csc(Cc2ccccc2)n1,-94.61,12.99,-
CC(=O)Nc1nc(CN(C)CC2CCCN2c2cccnn2)cs1 (stereo not given),4.797,8.791,-33.33
COc1ccccc1OC1CN(C(=O)C2CNCC(=O)N2)C1 (stereo not given),13.1,22.18,16.47
Cc1cc(CC(C)NC(=O)Cc2cc(F)ccc2C)[nH]n1 (stereo not given),-22.55,11.87,18.5
O=C(NCCCSc1ccc(F)cc1)C1CCc2cn[nH]c2C1 (stereo not given),-12.89,17.47,-
Cc1nn(CC(C)C)c(N(C)C)c1CNCc1ccc2c(c1)OCO2,19.03,22.29,7.964
[H][C@@]12CCN(C(=O)c3ccc(F)c(F)c3)C[C@]1(COC)CCO2,-27.28,-,-16.76
Cc1cccc2[nH]c(C3CCN(C(=O)c4ccnn4C)CC3)nc12,10.84,5.512,-8.943
CC[C@@]1(O)CCN(C(=O)c2cccc3cc(C)oc23)C[C@H]1O,-7.388,5.025,-0.1371
CC(C)(C)c1cc(C(=O)N2CCOC(c3cnccn3)C2)[nH]n1 (stereo not given),-14.05,17.45,-11.29
CN(C)S(=O)(=O)N1CCCC(c2cccc(Cc3ccc(F)cc3)n2)C1 (stereo not given),5.783,12,-
Cn1cc(-c2c(C#N)c(N)nc3c2CCc2[nH]ccc2-3)cn1,-3.129,15.68,95.48
COc1ccc(C(=O)N(C)Cc2nnc3ccccn23)c(OC)c1,-13.11,15.97,-
O=C1CSC(c2ccccc2)c2c(n(C3CCOCC3)[nH]c2=O)N1 (stereo not given),6.839,14.85,12.34
Cc1noc(CN2CCN(C(C)C(=O)NCc3cccs3)CC2)n1 (stereo not given),-7.715,-1.393,-88.44
[H][C@@]12CCN(C(=O)c3occc3C)C[C@@]1([H])O[C@H](c1noc(C)n1)C2,-10.7,-,4.934
Cc1nc(CC(=O)N2CCCCC2c2ccn3ccnc3n2)cs1 (stereo not given),0.8756,13.36,5.887
CC(C)c1nnc2n1CC(CNc1cnc3ccccc3n1)CC2 (stereo not given),-39.8,18.51,28.26

Source: ChEMBL document CHEMBL3988442, “University of Dundee, Small-Polar-MMV Screening Library” (2021).